Test results published in US6998239B1, “Method for identifying a modulator of the binding of CCX CKR polypeptide to a chemokine” (ChemoCentryx, Inc., priority 1999, dated 2006).
Some results were stated once for a whole list of compounds, not compound by compound. Some ranges recur; such a range may be that of the whole group of compounds.

Target: T1, CCX CKR (Homo sapiens, UniProt Q9NPB9)
T1 construct: Full length CCX CKR expression constructs were made in pIRESpuro expression vector; expressed in transfected cells
T1 sequence (Q9NPB9 1-350): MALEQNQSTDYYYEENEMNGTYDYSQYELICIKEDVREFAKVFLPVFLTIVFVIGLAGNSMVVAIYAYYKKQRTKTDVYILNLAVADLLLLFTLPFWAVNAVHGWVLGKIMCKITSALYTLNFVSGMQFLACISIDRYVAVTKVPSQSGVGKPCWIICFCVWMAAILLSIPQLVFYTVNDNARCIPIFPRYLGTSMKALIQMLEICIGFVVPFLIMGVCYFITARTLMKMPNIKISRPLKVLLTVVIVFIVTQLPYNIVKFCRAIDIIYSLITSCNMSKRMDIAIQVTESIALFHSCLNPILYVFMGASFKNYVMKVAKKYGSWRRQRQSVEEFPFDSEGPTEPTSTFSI
Test: Radioligand binding competition with Scatchard transformation (binding constants)
Settings: competition against radiolabeled ligand on CCX CKR stable transfectants, human ELC, SLC, TECK, read-out: Kd (apparent)
Text: In one embodiment, binding is detected as described by Dairaghi et al., 1997, J. Biol. Chem. 272:28206-209 (incorporated by reference in its entirety for all purposes) substituting CCX CKR transfectants for the CCR3 transfectants). In one embodiment, binding is detected using the filter based technique described by Dairaghi et al., 1999, J. Biol. Chem. 274:2156 (incorporated by reference in its entirety for all purposes), e.g., as shown in FIG. 4. Briefly, this technology employs expanded, efficiency-maximized radioligand binding utilizing filtration protocols. […] Filters are washed twice (25 mM HEPES, 500 mM NaCl, 1 mM CaCl25 mM MgCl2, adjusted to pH 7.1) and scintillant (e.g., MicroScint 20; 50 μl) is added to dried filters and counted (e.g., using a Packard Topcount scintillation counter). The competition dose-response curves is analyzed by standard methods to determine IC50 values (e.g., using GraphPad Prism software (San Diego, Calif.)). […]
The binding interactions identified in the primary screen were examined quantitatively by extensive radioligand binding competition to CCX CKR stable transfectants and Scatchard transformation of the displacement data (FIG. 4B). […]

B1: SLC: secondary lymphoid-tissue chemokine, recombinant (protein)
chain: SDGGAQDCCLKYSQRKIPAKVVRSYRKQEPSLGCSIPAILFLPRKRSQAELCADPKELWVQQLMQHLDKTPSPQKPAQGCRKDRGASKTGKKGKGSKGCKRTERSQTPKGP
In the case of B1, the Kd is reported as 5 to 15 nM.
